Structures can show the parent of a compound that is named as a salt.
Experiment: iontophoretic reservoir-electrode delivery test into a separation medium (ion exchange membrane), extraction and HPLC assay
Details: for Epinephrine (mg) Mean ± SD, n = 3 / Lidocaine HCl (mg) Mean ± SD, n = 3: reservoir-electrodes from a single lot; for Epinephrine recovered (mg) Mean ± SD, n = 5: epinephrine 1.05 mg; for Lidocaine HCl (n = 3, mg) Mean ± SD: membrane pretreated with 0.9% saline

CNC[C@H](O)c1ccc(O)c(O)c1 [Epinephrine, epinephrine bitartrate]
Epinephrine (mg) Mean ± SD, n = 3 (ion exchange membrane Lot # 1): 0.020 ± 0.001 mg | Epinephrine (mg) Mean ± SD, n = 3 (ion exchange membrane Lot # 2): 0.017 ± 0.001 mg | Epinephrine (mg) Mean ± SD, n = 3 (ion exchange membrane Lot # 3): 0.018 ± 0.001 mg | Epinephrine recovered (mg) Mean ± SD, n = 5 (reservoir-electrode loaded with Lidocaine HCl 25 mg/unit): 0.075 ± 0.002 mg | Epinephrine recovered (mg) Mean ± SD, n = 5 (reservoir-electrode loaded with Lidocaine HCl 50 mg/unit): 0.041 ± 0.001 mg | Epinephrine recovered (mg) Mean ± SD, n = 5 (reservoir-electrode loaded with Lidocaine HCl 100 mg/unit): 0.02 ± 0.001 mg

CCN(CC)CC(=O)Nc1c(C)cccc1C [Lidocaine HCl, lidocaine HCl]
Lidocaine HCl (n = 3, mg) Mean ± SD (0 mA (passive), contact time 0.67 min): 0.25 ± 0.02 mg | Lidocaine HCl (n = 3, mg) Mean ± SD (0 mA (passive), contact time 1.0 min): 0.32 ± 0.05 mg | Lidocaine HCl (n = 3, mg) Mean ± SD (0 mA (passive), contact time 1.5 min): 0.39 ± 0.05 mg | Lidocaine HCl (n = 3, mg) Mean ± SD (12 mA (active), contact time 1.5 min): 2.39 ± 0.08 mg | Ratio (active/passive) (12 mA vs 0 mA, contact time 1.5 min): 6.2 | Lidocaine HCl (n = 3, mg) Mean ± SD (18 mA (active), contact time 1.0 min): 2.47 ± 0.09 mg | Ratio (active/passive) (18 mA vs 0 mA, contact time 1.0 min): 7.7 | Lidocaine HCl (n = 3, mg) Mean ± SD (27 mA (active), contact time 0.67 min): 2.62 ± 0.09 mg | Ratio (active/passive) (27 mA vs 0 mA, contact time 0.67 min): 10.3 | Lidocaine HCl (mg) Mean ± SD, n = 3 (ion exchange membrane Lot # 1): 2.46 ± 0.02 mg | Lidocaine HCl (mg) Mean ± SD, n = 3 (ion exchange membrane Lot # 2): 2.38 ± 0.05 mg | Lidocaine HCl (mg) Mean ± SD, n = 3 (ion exchange membrane Lot # 3): 2.37 ± 0.04 mg | ratio of active (iontophoretic) delivery to passive (diffusive) delivery (membrane pretreated with 0.18% calcium chloride for 24 hours (FIG. 7)): 11.6 | ratio of active to passive delivery (membrane pretreated with 0.9% aqueous saline (NaCl) for 24 hours (FIG. 8)): about 7.7

— patent US6394994B1, “Method for testing the ability of an iontophoretic reservoir-electrode to deliver a medicament” (Vyteris, Inc., priority 1999, dated 2002)
